The values that follow come from PubChem BioAssay AID445 (National Center for Advancing Translational Sciences (NCATS), 2006).

The experiment can be described thus: IkB Signaling. The note with it: ABC-DLBCL IkBa-CBG/CBR dual luciferase ratio (green luciferase fused to IkBa over red control in OCI-Ly3 lymphoma cells), 4 h. In outline:
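In this assay, an IκBα–CBG68 fusion accumulates when IKK-driven degradation is blocked; native CBR normalizes for cell number. OCI-Ly3 cells were treated 4 h with compound and doxycycline, then green and red light read after Chroma-Glo addition.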

Setting [1] is: measured here: control luc red channel unless noted.
Setting [2] is: measured here: IkB-luc green channel.
Where [3] appears, read: measured here: control luc red channel.

The list shows a part of the results. Shown are side measurements of this screen, not its main read-out; they come without a call. Compounds called inactive in the main read-out are mostly missing here. Words in brackets tell the shape of the fitted curve; partial curves, single points and poor fits give uncertain potencies.

As for `COc1ccccc1N1CCN(c2csc3ccccc3c2=O)CC1`, under setting [1], the concentration at half-maximal activity (AC50) (usually the midpoint of the concentration-response curve, whichever way the signal moves) is 15.8 µM [falling, partial curve].
On the same count and under the same terms, under `Cc1cccc(C)c1Nc1c(-c2ccsc2)nc2cccc(C)n12` stands 20 µM [falling, single point]; under `COc1ccccc1CNC(=O)CCCCn1c(=O)c2ccccc2n(CC(=O)Nc2cccc(Cl)c2)c1=O`, 3.16 µM [falling, full curve]; under `CCOc1ccc(/C=C/c2nc(C#N)c(N3CCC(C)CC3)o2)cc1`, 15.8 µM [falling, single point].
In the case of `CCc1ccc(Sc2cc(C(=O)NCCCN3CCC(C)CC3)c3ccccc3n2)cc1`, the AC50 under setting [1] is 39.8 µM [falling, single point].
On to `CCOc1ccc(-c2n[nH]c(C)c2Oc2ccc(OC)cc2)c(O)c1`, for which, under setting [1], the AC50 is 31.6 µM [falling, single point].
Same read-out and setting: the value for `Cc1ccc(-n2ncc3c(N4CCN(c5ccc(F)cc5)CC4)ncnc32)cc1` was 3.16 µM [falling, partial curve].
Consider `O=C(C1CCN(S(=O)(=O)c2cccc3cccnc23)CC1)N1CC=C(c2ccccc2)CC1`, for which the AC50 is 39.8 µM [falling, single point] under setting [2] and 3.16 µM [falling, full curve] under setting [3].
On to `O=C(c1ccc2nc(-c3ccco3)c(-c3ccco3)nc2c1)N1CCN(c2ccccc2)CC1`, for which the half-maximal activity concentration (AC50) under setting [1] was 15.8 µM [falling, partial curve].
Still for that read-out and setting: under `COc1cccc(NC(=O)N(Cc2cn(C)c3ccccc23)C2CCCCCC2)c1` stands 10 µM [falling, partial curve].
Turning to `N#CC1=C(SCC(=O)NC2CCCCC2)NC(=O)CC1c1ccco1` (configuration not stated), the AC50 under setting [1] was 10 µM [falling, partial curve].
Same read-out and setting: under `CCN1CCN(c2cc(C)c3cc(NC(=O)/C=C/c4ccc(C)cc4)ccc3n2)CC1` stands 1 µM [falling, partial curve]; under `Cc1ccc(C)n1-c1nnc(N2CCCC(C(=O)NCc3cccc(Br)c3)C2)s1` (configuration not stated), 15.8 µM [falling, single point]; under `CCNc1nc(-c2ccc(Cl)cc2)cs1`, 25.1 µM [falling, single point].
On the same count and under the same terms, under `CC1=C(C(=O)NCc2ccc(Cl)cc2)C2(CCC(C)CC2)OC1=O` (configuration not stated) stands 15.8 µM [falling, single point]; under `COc1ccc(OC)c(Nc2nc(-c3sc(C)nc3C)cs2)c1`, 10 µM [falling, partial curve]; under `COc1cc(/C=C\C(=O)N2CCCCC2=O)cc(OC)c1OC`, 3.16 µM [falling, partial curve].
For the molecule `Cc1c(Cl)cccc1-n1nc(C)c2c(C)cc(=O)n(CC(=O)N3CCCc4ccccc43)c21`, the AC50 under setting [1] is 15.8 µM [falling, partial curve].
In the case of `Cc1nc(Nc2nc(-c3ccccc3)cc(=O)[nH]2)nc2ccccc12`, the concentration at half-maximal activity (AC50) under setting [1] was 0.0794 µM [falling, full curve].
With `CN1CCN(c2nc(Nc3cccc(C(F)(F)F)c3)nc(N3CCOCC3)n2)CC1`, the AC50 under setting [1] was 31.6 µM [falling, single point].
For `CCCOc1ccc(CNC(=O)C2CCN(C(=O)c3sccc3-n3cccc3)CC2)cc1`, the half-maximal activity concentration (AC50) under setting [1] was 39.8 µM [falling, single point].
Still for that read-out and setting: the value for `CCCNC(=O)C1CCN(c2nc3ccc(C)cc3[nH]2)CC1` was 15.8 µM [rising, partial curve]; that for `CCOC(=O)c1ccc2c(c1)N(Cc1ccc(F)cc1Cl)C(=O)c1ccccc1S2` was 15.8 µM [falling, partial curve].
Same read-out and setting: under `Cc1cnc(=O)[nH]c1SCC(=O)Nc1cc(C(F)(F)F)ccc1Cl` stands 39.8 µM [falling, single point]; under `O=C(CNS(=O)(=O)c1ccc(Br)s1)N1CCN(c2ccccc2F)CC1`, 39.8 µM [falling, single point].
Same read-out and setting: the value for `Clc1ccccc1Cn1nnc2c(Nc3ccccc3)ncnc21` was 25.1 µM [falling, partial curve]; that for `Cc1cccc(NC(=O)Cn2c(=O)oc3ccccc32)c1` was 12.6 µM [falling, partial curve].
Turning to `O=C(NC1CCCC1)c1cc(-c2cccs2)on1`, the AC50 is 12.6 µM [rising, partial curve] under setting [2] and 15.8 µM [falling, partial curve] under setting [3].
For `CCN1CCN(C(=O)c2ccc3c(c2)N(Cc2cc(C)ccc2C)C(=O)c2ccccc2S3=O)CC1` (configuration not stated), the AC50 under setting [1] is 39.8 µM [falling, single point].
On the same count and under the same terms, the value for `COC(=O)c1cc(NC(=O)CN(c2ccccc2)S(=O)(=O)N(C)C)ccc1Cl` was 12.6 µM [falling, partial curve].
For the molecule `NS(=O)(=O)c1ccc(CCNc2nc3c(-c4cccc(F)c4)nnn3c3ccc(Cl)cc23)cc1`, the AC50 is 25.1 µM [rising, single point] under setting [2] and 0.1 µM [falling, full curve] under setting [3].
For the molecule `CCOc1ccccc1NC(=O)Cn1nnc2sc3c(c2c1=O)CCC(C(C)(C)C)C3` (configuration not stated), the AC50 under setting [1] was 15.8 µM [falling, single point].
With `O=C(CCCCn1c(=O)[nH]c2ccsc2c1=O)N1CCN(c2cccc(Cl)c2)CC1`, the AC50 under setting [1] is 12.6 µM [falling, partial curve].
Consider `CCCCN(CCCC)S(=O)(=O)c1ccc2oc(C(=O)NCc3ccccc3)c(C)c2c1`, for which the AC50 under setting [1] is 10 µM [falling, partial curve, poor fit].
With `Cc1cc(C)c(/C=C/c2onc(C)c2S(=O)(=O)N2CCC(C(=O)NCc3ccco3)CC2)c(C)c1`, the half-maximal activity concentration (AC50) under setting [1] was 10 µM [falling, partial curve].
On the same count and under the same terms, under `CCOC(=O)N1CCN(C(=O)CN(c2ccc(C)cc2C)S(=O)(=O)c2ccccc2)CC1` stands 12.6 µM [falling, partial curve].
As to `Cc1cccc(NC(=O)CSc2nc(C)c(Cc3ccccc3)c(=O)[nH]2)c1`, the AC50 under setting [1] was 25.1 µM [falling, partial curve].
Still for that read-out and setting: the value for `COc1ccccc1N1CCN(C(=O)c2c3c(nc4ccccc24)C(=O)N(C2CCCCC2)C3)CC1` was 20 µM [falling, single point]; that for `CCC(C)NC(=O)c1sc2nc(C)c(C(=O)Nc3ccc(Cl)cc3)c(-c3ccc(Br)cc3)c2c1N` (configuration not stated) was 7.94 µM [falling, full curve].
